From PubChem BioAssay AID493027 (The Scripps Research Institute Molecular Screening Center, 2011)
Values joined by “and” are separate entries in the source; they are usually repeats but may differ in a detail not shown here. Identical values can stand only once. Out of some 2,000 compounds screened, about 45 (2%) were called active.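 The calls were made as follows: active = inhibition above the screen-wide mean inhibition plus 3 SD (cut at about 44% in these data); inactive = the rest.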 Some of the results follow.

By UniProt entry, the sequences of proteins in these tests, tags left out. Where a name states a change or a piece, a line headed by the entry shows the natural chain unless it says otherwise.
UniProt O60240: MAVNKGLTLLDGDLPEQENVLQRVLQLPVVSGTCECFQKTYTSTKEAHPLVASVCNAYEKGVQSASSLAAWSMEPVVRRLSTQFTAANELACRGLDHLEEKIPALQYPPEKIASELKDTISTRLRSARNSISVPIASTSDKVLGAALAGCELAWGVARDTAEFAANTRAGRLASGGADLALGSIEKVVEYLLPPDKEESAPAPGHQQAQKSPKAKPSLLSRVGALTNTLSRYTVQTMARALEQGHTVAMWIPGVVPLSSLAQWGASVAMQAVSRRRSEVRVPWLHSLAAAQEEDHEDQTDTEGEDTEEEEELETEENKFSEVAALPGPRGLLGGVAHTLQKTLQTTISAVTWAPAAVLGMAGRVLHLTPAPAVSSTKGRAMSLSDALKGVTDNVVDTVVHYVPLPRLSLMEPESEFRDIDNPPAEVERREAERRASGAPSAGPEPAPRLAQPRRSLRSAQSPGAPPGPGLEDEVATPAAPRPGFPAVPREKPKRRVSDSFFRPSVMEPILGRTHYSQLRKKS
UniProt Q8WTS1: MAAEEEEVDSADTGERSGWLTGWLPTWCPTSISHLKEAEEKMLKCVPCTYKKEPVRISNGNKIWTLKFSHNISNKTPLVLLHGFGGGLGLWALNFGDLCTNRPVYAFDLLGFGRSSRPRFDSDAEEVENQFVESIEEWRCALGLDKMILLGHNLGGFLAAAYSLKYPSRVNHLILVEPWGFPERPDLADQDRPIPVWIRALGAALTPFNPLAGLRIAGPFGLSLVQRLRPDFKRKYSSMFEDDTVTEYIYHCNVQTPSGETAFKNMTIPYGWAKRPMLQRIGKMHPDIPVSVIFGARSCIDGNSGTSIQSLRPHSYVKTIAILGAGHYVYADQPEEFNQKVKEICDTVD

What follows are compounds tested against Perilipin-1 (Homo sapiens) + 1-acylglycerol-3-phosphate O-acyltransferase ABHD5 (Homo sapiens) (UniProt O60240+Q8WTS1) (assay: blockers of ABHD5 binding to perilipin-1 – cell lysate, split luciferase complementation, luminescence, NIH validation set, pilot screen (AID 493027;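 also: 0% = DMSO wells with the 100% control not disclosed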)). Details: split G. princeps luciferase complementation, 4 h; at 7.9 µM, stronger effect = higher value.

inhibition, active:
Cc1ccc(S(=O)(=O)N[C@@H](Cc2ccccc2)C(=O)CCl)cc1 82.3%

inhibition, inactive:
CN(C)C(=O)C12CCC(C)(c3nc4ccccc4nc31)C2(C)C (stereo not given) -11.6%
C/C(=N\NC(=O)C1(C)CC1(Br)Br)c1ccc([N+](=O)[O-])cc1 (stereo not given) -4.77%
COC(=O)c1cc(C(=O)NCCC(C)C)cc([N+](=O)[O-])c1 -28.2%
COc1cccc(-n2cc(CNCc3c(C(=O)N(C)C)nc4ccc(Cl)cn34)cn2)c1 0.53%
CNS(=O)(=O)c1ccc(C)cc1 -13.4%
COC(=O)c1ccc2c(c1)C(=O)/C(=C/c1ccc(O)cc1)O2 7.53%
CC(=O)[C@@]1(O)CC[C@H]2[C@@H]3C[C@H](C)C4=CC(=O)C=C[C@]4(C)[C@@]3(F)[C@@H](O)C[C@@]21C -9.9%
CCc1nc(N)nc(N)c1-c1ccc(Cl)cc1 -8.52%
O=C(NCCc1cccc(F)c1)[C@@H]1CSC2c3ccccc3C(=O)N21 (stereo not given in full) -13.8%
CC(C)NCC(O)COc1ccc(CCOCC2CC2)cc1 (stereo not given) -0.69%
C1CCC(C(CC2CCCCN2)C2CCCCC2)CC1 (stereo not given) -1.28%
Clc1ccc(OCCCN2CCCCC2)c(Br)c1 7.48%
Cc1nc(N)sc1C(=O)N/N=C/c1ccco1 -3.01%
COc1ccc(OCC(=O)N2c3ccc(C)cc3C3CN(C)CCC32)cc1 (stereo not given) 1.63%
COc1cccc(CN2CCN(C(=O)c3ccc(-c4ccccc4)cc3)CC2)c1 2.9%
COC1CCN(C(=O)c2ccc(OC3CCN(Cc4ccccn4)CC3)cc2)CC1 -3.88%
COc1ccc(CCN=C(N)C(C)c2ccccc2)cc1OC (stereo not given) -12.2%
O=C1c2ccccc2C(=O)N1/N=C/c1ccc(Oc2ccc([N+](=O)[O-])cn2)cc1 -4.7%
Cc1ccc(S(=O)(=O)Nc2ccc(S(=O)(=O)Nc3cc(C)nc(C)n3)cc2)cc1 -1.59%
CCN(CC)CCCNC(=O)C1c2ccccc2Oc2ccccc21 -7.51%
C1COC(NC(C2CC2)C2CC2)=N1 4.41%
NC(N)=N/N=C/c1ccc(OS(=O)(=O)c2ccccc2)cc1 0.04%
OC[C@H]1O[C@@H](n2cnc3c(NC4CCCC4)ncnc32)[C@H](O)[C@@H]1O -5.64%
CCOc1cc(C)cc2oc(=O)cc(-c3ccccc3)c12 -6.66%
CC(C)CC(=O)Nc1ccc2oc(-c3ccncc3)nc2c1 -6.89%
CCN(Cc1ccncc1)Cc1nc(Cc2ccccc2Cl)no1 -2.22%
c1cc2c(cc1C1CCCCC1)c1c3n2CCN=C3CCC1 -2.95%
Cc1ccc2c(c1C)NC(C(=O)O)C1CC=CC21 (stereo not given) 12%
COc1cccc2c1C(=O)O/C2=C/c1ccc2c(c1)OCO2 7.21%
CC(C)[N+](C)(CCOC(=O)C1c2ccccc2Oc2ccccc21)C(C)C 9.82%
c1ccc(Nc2ccccn2)nc1 0.38%
CC(C)CCn1c(N2CCc3ccccc3C2)nc2c1c(=O)[nH]c(=O)n2C 7.93%
O=C(O)CCNC(=O)c1ccccc1 -7.18%
Cc1oc2c(O)c(O)ccc2c(=O)c1-c1ccccc1 2.24%
[N-]=[N+]=NC1C[C@H](n2ccc(=O)[nH]c2=O)O[C@@H]1CO (stereo not given in full) -13.8%
CCc1ccc(/C=C2\Oc3cc(OC(=O)N4CCOCC4)ccc3C2=O)cc1 17.4%
CC1=NN(c2ccccc2)C(=O)C1 0.75%
COc1ccc(S(=O)(=O)NCc2ccco2)c2ccccc12 0.14%
COc1ccc(CCNC(=O)c2c(O)c3c([nH]c2=O)CCCC3)cc1 3.26%
CCCC(=O)O[C@]1(C(=O)CCl)[C@@H](C)C[C@H]2[C@@H]3CCC4=CC(=O)C=C[C@]4(C)[C@@]3(F)C(=O)C[C@@]21C -0.82%
CCOc1ccc2ccccc2c1C(=O)N[C@@H]1C(=O)N2[C@@H]1SC(C)(C)[C@@H]2C(=O)O -1.39%
Cn1c(=O)c2c(nc(SCCN3CCCCC3)n2C)n(C)c1=O -12.7%
COc1cc2c(cc1OC)C1(CCCC1)CNC2c1cccc([N+](=O)[O-])c1 (stereo not given) -7.41%
CCN(CC)CCNC(=O)c1cc(Cl)c(N)cc1OC 2.4%
NCCc1cnc[nH]1 -3.28% and -10%
COc1ccc(OC)c(S(=O)(=O)N2CCCc3ccccc32)c1 -0.08%
NCCCC(=O)O -0.12%
O=C(c1ccccc1)N1CCN(C(=O)c2ccccc2)CC1 -7.73%
NC(N)=NC(=O)Cc1c(Cl)cccc1Cl -5.41%
CC/C(=C(\c1ccc(O)cc1)c1ccc(OCCN(C)C)cc1)c1ccccc1 15.3%
C[C@H](NC(=O)OC(C)(C)C)C(=O)NCC1CCC(C(=O)O)CC1 (stereo not given in full) -11.3%
COc1cccc(N2CC(O)=C(c3nc4ccccc4c(=O)[nH]3)C2=N)c1 16.4%
NS(=O)(=O)c1cc2c(cc1Cl)NC(C(Cl)Cl)NS2(=O)=O (stereo not given) 1.9%
COc1ccc(C(=O)C2CCCCC2=O)cc1 (stereo not given) -6.92%
Cc1ccc(-n2cc(CNCCN3CCOC3=O)c(-c3ccc(F)cc3)n2)cc1 -6.45%
O=C(CCCn1c(=O)oc2ccccc21)N1CCN(c2ccc(F)cc2)CC1 -2.2%
Cc1ccc(C(=O)Nc2ccccc2C(=O)NC(C(=O)O)C(C)C)cc1 (stereo not given) -1.38%
CCn1c(SCC(=O)c2ccccc2)nc2ccccc2c1=O 2.15%
CC(=O)O[C@H]1C(=O)[C@@]2(C)[C@H]([C@H](OC(=O)c3ccccc3)[C@]3(O)C[C@H](OC(=O)[C@H](O)C(NC(=O)c4ccccc4)c4ccccc4)C(C)=C1C3(C)C)[C@]1(OC(C)=O)CO[C@@H]1C[C@@H]2O (stereo not given in full) 3.2%
